Test results as given in patent publication US9133187B2, “Serine/threonine kinase inhibitors” (ARRAY BIOPHARMA INC., priority 2011, dated 2015).

By UniProt entry, the sequences of proteins in these tests, tags left out. Residues count along the entry.
UniProt P28482, 8-360 limits assumed: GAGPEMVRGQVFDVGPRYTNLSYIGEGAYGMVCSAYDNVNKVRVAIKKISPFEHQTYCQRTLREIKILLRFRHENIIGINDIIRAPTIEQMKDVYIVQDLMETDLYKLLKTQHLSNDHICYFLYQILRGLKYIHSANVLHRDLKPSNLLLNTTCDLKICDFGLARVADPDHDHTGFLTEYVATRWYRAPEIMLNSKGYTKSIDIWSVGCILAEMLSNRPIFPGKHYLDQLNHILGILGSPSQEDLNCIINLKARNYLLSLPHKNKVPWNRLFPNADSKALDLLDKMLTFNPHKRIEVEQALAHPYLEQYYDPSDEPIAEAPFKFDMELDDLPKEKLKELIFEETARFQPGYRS

What was measured:
[1] = biological target: human ERK-2 (Mitogen Activated Kinase 1) (Homo sapiens (Human), UniProt P28482); assay: ERK-2 Enzymatic Assay; assay type: biochemical; conditions: read-out: ERK Inhibition IC50; 5 nM ERK-2, 25 μM ATP, Omnia peptide S/T17
[2] = test system: PMA-stimulated P90RSK(Ser380) phosphorylation in HepG2 cells; assay: Cellular P90RSK(Ser380) Phosphorylation Assay; conditions: read-out: Cell Assay IC50, 1.5 h compound incubation, PMA stimulation, pP90RSK(Ser380) normalized to GAPDH

- IC50 [1]: 0.109 µM
SMILES: C[C@@H](Nc1ncc2c(n1)O[C@@H](C(=O)N[C@H](CO)c1ccc(OC(F)F)cc1)CC2)C1CC1
- IC50 [2]: 1.3 µM

Structures were worked out from names or drawings and are uncertain.
